Measured values as given in PubChem BioAssay AID278 (DTP/NCI, 2004).
The list does not hold the whole screen: it is rich in T/C values a quarter to a half above the control, in often repeated tests (any T/C) and in doses without a T/C. Other doses and runs of a compound stand elsewhere. T/C is the treated group as % of the vehicle group. Schedules are NCI's codes, read here as Q, the interval in days (D) or hours (H), X, the number of doses. Some entries hold several experiments; the values are given in rising order. Some T/C values carry the count of animals alive at the toxicity check (mostly the fifth day); without a count, all were alive then. Some entries give survivors of the animals treated and no T/C: the source files T/C as zero there, which appears to mark a toxic dose or a test without result, not a measured value. Survivors were counted at the toxicity check, usually on the fifth day, unless a day is given; later deaths do not show.

Tested on: nude mice, A549 intrarenal xenograft, tumor weight change
Assay: NCI In Vivo Anticancer Drug Screen. Data for tumor model A549 Human Adenocarcinoma of Lung with characteristics of Type II Alveolar Epithelial cells (intrarenal inoculation) in NU/NU BALB/C (nude) mice
Settings: T/C endpoint: mean tumor weight change, higher T/C = larger tumour
Summary of the method: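 Activity is expressed as T/C: the treated-group value over the vehicle-treated control value. The measure was survival or tumor size in mice carrying transplantable tumors.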

[1] = dose: 400.0 mg/kg/injection, schedule: Q04DX003 (ip), vehicle: Klucel (hydroxypropylcellulose) (HPC)
[2] = dose: 600.0 mg/kg/injection, schedule: Q04DX003 (ip), vehicle: Klucel (hydroxypropylcellulose) (HPC)

O=C(NC(Cc1ccc(I)cc1)C(=O)O)c1cccc(Br)c1 (stereo not drawn)
survivor count [1]: 3 of 5 on day 12 | survivor count [2]: 1 of 6 on day 12 | survivor count (dose: 800.0 mg/kg/injection, schedule: Q04DX003 (ip), vehicle: Klucel (hydroxypropylcellulose) (HPC)): 1 of 6 on day 12 | survivor count (dose: 1200.0 mg/kg/injection, schedule: Q04DX003 (ip), vehicle: Klucel (hydroxypropylcellulose) (HPC)): 0 of 6 on day 12

NC(=S=O)C(N)=S=O
survivor count (dose: 1000.0 mg/kg/injection, schedule: Q04DX003 (ip), vehicle: saline with Tween-80): 2 of 6 on day 12

COc1cc2c(cc1OC)[C@@H]1C(=O)c3ccc4c(c3O[C@@H]1CO2)C[C@H](C(C)C)O4
survivor count (dose: 170.0 mg/kg/injection, schedule: Q04DX003 (ip), vehicle: Klucel (hydroxypropylcellulose) (HPC)): 0 of 6 on day 12

COc1cc(C2=NCCc3cc4c(cc32)OCO4)cc(OC)c1OC
survivor count (dose: 300.0 mg/kg/injection, schedule: Q04DX003 (ip), vehicle: saline + alcohol): 0 of 6 on day 12

C=CCOc1cc2c(cc1C(C)c1ccc(OC)cc1)OCO2 (stereo not drawn)
T/C (dose: 75.0 mg/kg/injection, schedule: Q04DX003 (ip), vehicle: Klucel (hydroxypropylcellulose) (HPC), evaluated on day 12): 147 % of control | survivor count [2]: 1 of 6 on day 12 and 3 of 6 on day 12

Cc1c(O)/c(=C\O)c2nc3c(=O)ccc(C(=O)NCCN(C)C)c3[nH]c2c1=O
survivor count (dose: 333.0 mg/kg/injection, schedule: Q04DX003 (ip), vehicle: water): 1 of 6 on day 12 | survivor count (dose: 333.33 mg/kg/injection, schedule: Q04DX003 (ip), vehicle: water): 1 of 6 on day 12 | survivor count (dose: 400.0 mg/kg/injection, schedule: Q04DX003 (ip), vehicle: water): 2 of 6 on day 12

CC(C)N1C(=O)N(Cl)C2C1N(Cl)C(=O)N2Cl (stereo not drawn)
survivor count (dose: 25.0 mg/kg/injection, schedule: Q04DX003 (ip), vehicle: saline with Tween-80): 1 of 5 on day 12

O=C1c2ccccc2C(Cl)(c2ccc(Cl)cc2)c2ccc(Cl)cc21 (stereo not drawn)
T/C (dose: 300.0 mg/kg/injection, schedule: Q04DX003 (ip), vehicle: saline with Tween-80, evaluated on day 12): 145 % of control | survivor count (dose: 600.0 mg/kg/injection, schedule: Q04DX003 (ip), vehicle: saline with Tween-80): 2 of 6 on day 12 | survivor count (dose: 1200.0 mg/kg/injection, schedule: Q04DX003 (ip), vehicle: saline with Tween-80): 1 of 6 on day 12

O=C1CN(c2ccccc2)C(=O)C1C(=O)Nc1ccc(Cl)c(Cl)c1 (stereo not drawn)
T/C (dose: 120.0 mg/kg/injection, schedule: Q04DX003 (ip), vehicle: saline with Tween-80, evaluated on day 11): 39 % of control | T/C (dose: 120.0 mg/kg/injection, schedule: Q04DX003 (ip), vehicle: saline with Tween-80, evaluated on day 12): 45, 90, 91 % of control | T/C (dose: 240.0 mg/kg/injection, schedule: Q04DX003 (ip), vehicle: saline with Tween-80, evaluated on day 11): 21 % of control | T/C (dose: 240.0 mg/kg/injection, schedule: Q04DX003 (ip), vehicle: saline with Tween-80, evaluated on day 12): 50, 62, 82 % of control | survivor count (dose: 346.0 mg/kg/injection, schedule: Q04DX003 (ip), vehicle: saline with Tween-80): 1 of 6 on day 12 | T/C (dose: 480.0 mg/kg/injection, schedule: Q04DX003 (ip), vehicle: saline with Tween-80, evaluated on day 11): 57 % of control | T/C (dose: 480.0 mg/kg/injection, schedule: Q04DX003 (ip), vehicle: saline with Tween-80, evaluated on day 12): 38 % of control [4 of 6 alive on day 12] | survivor count (dose: 480.0 mg/kg/injection, schedule: Q04DX003 (ip), vehicle: saline with Tween-80): 1 of 6 on day 12 and 2 of 6 on day 12 | survivor count (dose: 576.0 mg/kg/injection, schedule: Q04DX003 (ip), vehicle: saline with Tween-80): 0 of 6 on day 12 | T/C (dose: 960.0 mg/kg/injection, schedule: Q04DX003 (ip), vehicle: saline with Tween-80, evaluated on day 11): 11 % of control | survivor count (dose: 960.0 mg/kg/injection, schedule: Q04DX003 (ip), vehicle: saline with Tween-80): 0 of 6 on day 12 and 2 of 6 on day 12 | survivor count (dose: 1600.0 mg/kg/injection, schedule: Q04DX003 (ip), vehicle: saline with Tween-80): 0 of 6 on day 12

O=[N+]([O-])c1ccc([I+]c2ccccc2)cc1
survivor count (dose: 150.0 mg/kg/injection, schedule: Q04DX003 (ip), vehicle: Klucel (hydroxypropylcellulose) (HPC)): 0 of 6 on day 12

CCCCN1C(=O)N(c2ccc(OCC)cc2)C2N(CCCC)C1C(C)(C)C2(C)C (stereo not drawn)
survivor count (dose: 240.0 mg/kg/injection, schedule: Q04DX003 (ip), vehicle: saline with Tween-80): 3 of 5 on day 12

CC(=O)C[n+]1ccc(C)cc1Sc1ccccc1C
T/C (dose: 25.0 mg/kg/injection, schedule: Q04DX003 (ip), vehicle: saline with Tween-80, evaluated on day 12): 126 % of control [5 of 6 alive on day 12] | survivor count (dose: 200.0 mg/kg/injection, schedule: Q04DX003 (ip), vehicle: saline with Tween-80): 1 of 6 on day 12

N#CC(C#N)=NNc1ccc2cn[nH]c2c1
T/C (dose: 50.0 mg/kg/injection, schedule: Q04DX003 (ip), vehicle: Klucel (hydroxypropylcellulose) (HPC), evaluated on day 12): 128 % of control

CC(CNC(=O)C12CC3CC(CC(C3)C1)C2)NC(=O)C12CC3CC(CC(C3)C1)C2 (stereo not drawn)
T/C (dose: 150.0 mg/kg/injection, schedule: Q04DX003 (ip), vehicle: DMSO, evaluated on day 12): 144 % of control | T/C (dose: 600.0 mg/kg/injection, schedule: Q04DX003 (ip), vehicle: DMSO, evaluated on day 12): 135 % of control | T/C (dose: 1200.0 mg/kg/injection, schedule: Q04DX003 (ip), vehicle: DMSO, evaluated on day 12): 126 % of control

Nc1ccn([C@@H]2C=C(CO)[C@@H](O)[C@H]2O)c(=O)n1
survivor count (dose: 2.25 mg/kg/injection, schedule: Q01DX009 (ip), vehicle: saline): 2 of 6 on day 12 | survivor count (dose: 4.0 mg/kg/injection, schedule: Q01DX009 (ip), vehicle: saline): 0 of 6 on day 12 | survivor count (dose: 8.0 mg/kg/injection, schedule: Q01DX009 (ip), vehicle: saline): 0 of 6 on day 12

C/C(=N\NC(=S)N1CC2CCC(CC2)C1)c1nccs1
survivor count (dose: 100.0 mg/kg/injection, schedule: Q04DX003 (ip), vehicle: saline with Tween-80): 0 of 6 on day 12

c1nnc(NCNc2nncs2)s1
survivor count [1]: 3 of 6 on day 12 | survivor count (dose: 667.0 mg/kg/injection, schedule: Q04DX003 (ip), vehicle: Klucel (hydroxypropylcellulose) (HPC)): 1 of 6 on day 12 | survivor count (dose: 800.0 mg/kg/injection, schedule: Q04DX003 (ip), vehicle: suspension in saline): 2 of 6 on day 12
